Reference: US20240066077A1 (priority 2020, published 2024)
At least one compound was matched to its structure with a doubt left.

Legend:
NLRP3 = NLRP3 expression in pulmonary tissue of LPS+OVA mouse model (western blotting); format: in vivo
eNOS signaling proteins = assay: eNOS signal activation in A549 cells (western blotting); format: cell-based; details: E. coli EVs
[1] = tested on: neutrophils isolated from peripheral blood; assay: Neutrophil activation by E. coli-derived vesicles, neutrophil elastase secretion (ELISA); format: cell-based; details: human blood neutrophils co-treated with E. coli EVs for 24 hours

C[C@@H]1C[C@H]2[C@@H]3CCC4=CC(=O)C=C[C@]4(C)[C@@]3(F)[C@@H](O)C[C@]2(C)[C@@]1(O)C(=O)CO [dexamethasone]
NLRP3 expression (NLRP3): remarkably suppressed
phosphorylation of ERK (eNOS signaling proteins): increased
phosphorylation of eNOS (eNOS signaling proteins): increased
secretion of neutrophil elastase (NE) [1]: could not suppress
